27 targets from the supplement of paper PMC10849652 can be followed below.

Protein sequences, listed by entry. Tags and fused reporters are not part of them. Lines headed by an entry give the natural chain unless they say otherwise; changes in a name come on top.
UniProt Q86U06: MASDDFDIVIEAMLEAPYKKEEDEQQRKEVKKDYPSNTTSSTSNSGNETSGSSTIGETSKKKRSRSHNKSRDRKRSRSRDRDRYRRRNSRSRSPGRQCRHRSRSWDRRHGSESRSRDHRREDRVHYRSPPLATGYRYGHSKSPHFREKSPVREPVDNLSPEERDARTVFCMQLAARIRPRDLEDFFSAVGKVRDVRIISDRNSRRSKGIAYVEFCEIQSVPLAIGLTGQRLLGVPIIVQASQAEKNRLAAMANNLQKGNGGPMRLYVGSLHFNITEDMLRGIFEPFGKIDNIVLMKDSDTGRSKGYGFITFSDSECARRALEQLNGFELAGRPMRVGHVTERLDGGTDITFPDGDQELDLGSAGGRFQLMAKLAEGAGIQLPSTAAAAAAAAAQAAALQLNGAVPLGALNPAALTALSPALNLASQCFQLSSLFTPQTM
UniProt Q9UKM9: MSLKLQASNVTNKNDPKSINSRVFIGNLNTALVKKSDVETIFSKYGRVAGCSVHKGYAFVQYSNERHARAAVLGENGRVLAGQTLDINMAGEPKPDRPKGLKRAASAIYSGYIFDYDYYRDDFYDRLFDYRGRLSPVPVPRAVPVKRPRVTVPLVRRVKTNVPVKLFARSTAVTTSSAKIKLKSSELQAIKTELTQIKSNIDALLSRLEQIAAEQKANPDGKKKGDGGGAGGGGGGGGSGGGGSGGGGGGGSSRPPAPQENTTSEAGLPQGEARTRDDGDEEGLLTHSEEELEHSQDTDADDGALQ
UniProt Q15283: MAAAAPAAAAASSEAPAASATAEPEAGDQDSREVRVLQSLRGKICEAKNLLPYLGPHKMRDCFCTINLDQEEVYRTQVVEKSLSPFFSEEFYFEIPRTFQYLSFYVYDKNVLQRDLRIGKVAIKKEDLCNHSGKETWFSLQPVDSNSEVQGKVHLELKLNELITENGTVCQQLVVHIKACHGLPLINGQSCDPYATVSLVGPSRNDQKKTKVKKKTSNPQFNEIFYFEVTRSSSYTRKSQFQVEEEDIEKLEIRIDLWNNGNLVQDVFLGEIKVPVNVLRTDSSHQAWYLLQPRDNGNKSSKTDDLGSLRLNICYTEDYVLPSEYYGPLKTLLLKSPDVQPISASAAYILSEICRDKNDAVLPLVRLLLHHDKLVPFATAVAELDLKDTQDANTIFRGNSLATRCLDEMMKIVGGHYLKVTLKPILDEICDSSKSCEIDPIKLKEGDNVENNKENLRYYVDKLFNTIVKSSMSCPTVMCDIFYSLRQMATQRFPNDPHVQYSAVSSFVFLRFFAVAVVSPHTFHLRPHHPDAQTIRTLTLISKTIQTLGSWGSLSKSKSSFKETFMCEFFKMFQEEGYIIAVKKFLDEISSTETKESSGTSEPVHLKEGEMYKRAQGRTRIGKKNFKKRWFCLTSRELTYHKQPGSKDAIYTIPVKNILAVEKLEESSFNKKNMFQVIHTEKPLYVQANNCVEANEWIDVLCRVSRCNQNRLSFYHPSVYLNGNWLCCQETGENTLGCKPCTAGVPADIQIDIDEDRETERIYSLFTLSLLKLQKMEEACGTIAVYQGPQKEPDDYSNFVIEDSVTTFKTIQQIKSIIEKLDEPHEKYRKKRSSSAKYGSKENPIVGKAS
UniProt Q15291, whole entry, looked up: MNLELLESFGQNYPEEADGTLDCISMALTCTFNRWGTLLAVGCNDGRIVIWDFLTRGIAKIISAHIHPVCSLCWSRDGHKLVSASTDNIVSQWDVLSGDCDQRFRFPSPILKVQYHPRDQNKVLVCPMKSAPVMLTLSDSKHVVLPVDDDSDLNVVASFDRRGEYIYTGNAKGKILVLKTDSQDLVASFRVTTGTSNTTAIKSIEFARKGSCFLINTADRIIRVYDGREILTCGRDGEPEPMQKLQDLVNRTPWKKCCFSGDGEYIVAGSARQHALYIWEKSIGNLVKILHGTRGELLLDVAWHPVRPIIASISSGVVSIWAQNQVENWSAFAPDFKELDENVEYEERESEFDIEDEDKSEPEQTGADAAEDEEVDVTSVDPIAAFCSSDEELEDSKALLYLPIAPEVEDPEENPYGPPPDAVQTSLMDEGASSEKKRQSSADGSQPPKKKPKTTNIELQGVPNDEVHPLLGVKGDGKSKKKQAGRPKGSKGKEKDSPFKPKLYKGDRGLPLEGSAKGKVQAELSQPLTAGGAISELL
UniProt Q09028, whole entry, looked up: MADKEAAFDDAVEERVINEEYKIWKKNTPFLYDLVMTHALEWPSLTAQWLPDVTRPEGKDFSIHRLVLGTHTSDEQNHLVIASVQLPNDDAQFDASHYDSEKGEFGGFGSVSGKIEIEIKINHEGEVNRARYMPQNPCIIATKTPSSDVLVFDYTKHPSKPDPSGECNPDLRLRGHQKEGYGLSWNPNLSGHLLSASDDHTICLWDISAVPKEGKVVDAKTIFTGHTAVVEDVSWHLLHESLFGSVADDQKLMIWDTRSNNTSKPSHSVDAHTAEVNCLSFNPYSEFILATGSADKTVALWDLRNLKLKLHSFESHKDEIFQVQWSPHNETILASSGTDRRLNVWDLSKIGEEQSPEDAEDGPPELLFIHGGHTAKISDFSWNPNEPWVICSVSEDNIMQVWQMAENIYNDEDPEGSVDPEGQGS
UniProt Q86X10: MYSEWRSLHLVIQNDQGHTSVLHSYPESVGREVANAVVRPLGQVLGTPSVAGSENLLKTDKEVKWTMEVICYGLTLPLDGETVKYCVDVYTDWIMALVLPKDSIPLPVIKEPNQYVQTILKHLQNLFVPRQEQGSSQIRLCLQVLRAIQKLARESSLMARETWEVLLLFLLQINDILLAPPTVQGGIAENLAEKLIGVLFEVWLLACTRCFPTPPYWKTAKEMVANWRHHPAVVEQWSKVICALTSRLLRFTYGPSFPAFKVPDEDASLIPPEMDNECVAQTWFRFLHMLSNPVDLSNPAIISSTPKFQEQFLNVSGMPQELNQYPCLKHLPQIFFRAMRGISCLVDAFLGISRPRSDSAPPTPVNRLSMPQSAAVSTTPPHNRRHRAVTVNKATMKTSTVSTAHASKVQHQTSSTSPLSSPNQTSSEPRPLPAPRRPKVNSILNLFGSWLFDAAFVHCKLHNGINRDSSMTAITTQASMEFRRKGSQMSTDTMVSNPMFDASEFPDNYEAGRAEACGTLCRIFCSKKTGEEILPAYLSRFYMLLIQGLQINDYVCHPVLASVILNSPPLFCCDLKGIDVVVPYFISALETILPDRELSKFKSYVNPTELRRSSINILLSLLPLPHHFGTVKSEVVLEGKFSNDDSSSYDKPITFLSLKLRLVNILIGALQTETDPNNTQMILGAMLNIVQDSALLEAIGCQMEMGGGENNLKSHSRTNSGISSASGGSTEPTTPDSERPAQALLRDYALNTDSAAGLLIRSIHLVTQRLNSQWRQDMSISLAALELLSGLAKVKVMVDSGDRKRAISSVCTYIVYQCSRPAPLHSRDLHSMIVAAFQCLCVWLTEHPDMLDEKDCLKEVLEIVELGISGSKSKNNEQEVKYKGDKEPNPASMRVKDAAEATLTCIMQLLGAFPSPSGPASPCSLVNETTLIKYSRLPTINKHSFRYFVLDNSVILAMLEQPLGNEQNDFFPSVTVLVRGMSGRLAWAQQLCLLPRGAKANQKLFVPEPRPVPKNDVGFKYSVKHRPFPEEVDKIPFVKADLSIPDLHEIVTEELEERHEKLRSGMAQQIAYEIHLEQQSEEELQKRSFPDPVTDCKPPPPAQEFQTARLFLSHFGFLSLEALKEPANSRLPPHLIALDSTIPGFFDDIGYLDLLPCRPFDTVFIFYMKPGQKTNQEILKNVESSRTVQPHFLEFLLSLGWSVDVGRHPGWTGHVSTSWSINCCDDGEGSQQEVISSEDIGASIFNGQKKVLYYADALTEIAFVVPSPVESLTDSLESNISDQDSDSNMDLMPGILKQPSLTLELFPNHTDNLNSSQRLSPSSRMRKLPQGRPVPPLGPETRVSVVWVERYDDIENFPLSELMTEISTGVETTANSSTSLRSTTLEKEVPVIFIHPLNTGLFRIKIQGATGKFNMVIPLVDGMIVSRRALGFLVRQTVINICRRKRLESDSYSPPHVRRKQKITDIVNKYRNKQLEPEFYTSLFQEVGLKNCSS
UniProt Q9H6Z4: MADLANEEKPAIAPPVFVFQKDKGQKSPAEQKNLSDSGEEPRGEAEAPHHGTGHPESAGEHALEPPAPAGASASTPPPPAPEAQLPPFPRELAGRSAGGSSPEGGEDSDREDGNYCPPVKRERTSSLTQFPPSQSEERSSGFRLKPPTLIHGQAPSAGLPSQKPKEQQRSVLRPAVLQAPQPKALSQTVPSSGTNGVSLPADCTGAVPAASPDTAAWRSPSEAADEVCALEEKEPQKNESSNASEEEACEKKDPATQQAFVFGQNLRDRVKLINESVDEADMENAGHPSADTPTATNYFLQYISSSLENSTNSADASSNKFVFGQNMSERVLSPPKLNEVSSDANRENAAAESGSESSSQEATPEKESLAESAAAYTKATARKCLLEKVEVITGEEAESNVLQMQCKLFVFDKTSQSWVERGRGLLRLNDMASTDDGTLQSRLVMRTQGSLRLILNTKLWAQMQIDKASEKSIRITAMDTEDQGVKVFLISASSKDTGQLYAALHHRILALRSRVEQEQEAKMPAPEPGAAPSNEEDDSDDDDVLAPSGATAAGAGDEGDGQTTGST
UniProt O15315: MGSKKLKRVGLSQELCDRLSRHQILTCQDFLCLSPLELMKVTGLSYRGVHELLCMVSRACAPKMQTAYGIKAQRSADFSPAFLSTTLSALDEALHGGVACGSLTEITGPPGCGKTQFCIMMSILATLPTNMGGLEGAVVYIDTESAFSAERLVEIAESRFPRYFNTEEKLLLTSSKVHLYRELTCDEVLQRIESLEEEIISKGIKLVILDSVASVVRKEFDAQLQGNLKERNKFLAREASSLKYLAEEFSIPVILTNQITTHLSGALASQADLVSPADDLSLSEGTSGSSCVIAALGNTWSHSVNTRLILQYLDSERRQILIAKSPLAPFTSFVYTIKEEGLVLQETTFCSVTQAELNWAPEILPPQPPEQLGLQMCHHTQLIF
UniProt Q96S21: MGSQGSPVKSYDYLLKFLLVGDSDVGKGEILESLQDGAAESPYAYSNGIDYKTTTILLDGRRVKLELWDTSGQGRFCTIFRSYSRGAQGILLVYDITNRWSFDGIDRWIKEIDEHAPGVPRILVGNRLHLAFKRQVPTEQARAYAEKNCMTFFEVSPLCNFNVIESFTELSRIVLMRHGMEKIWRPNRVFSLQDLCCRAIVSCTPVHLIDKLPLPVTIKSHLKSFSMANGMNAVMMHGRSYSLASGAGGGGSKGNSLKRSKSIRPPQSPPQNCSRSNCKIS
UniProt Q9UI14, whole entry, looked up: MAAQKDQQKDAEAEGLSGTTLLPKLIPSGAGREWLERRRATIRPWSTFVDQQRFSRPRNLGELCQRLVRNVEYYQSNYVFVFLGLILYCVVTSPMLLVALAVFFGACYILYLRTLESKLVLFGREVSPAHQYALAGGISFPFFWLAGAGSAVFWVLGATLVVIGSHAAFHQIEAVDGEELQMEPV
UniProt Q9BYM8: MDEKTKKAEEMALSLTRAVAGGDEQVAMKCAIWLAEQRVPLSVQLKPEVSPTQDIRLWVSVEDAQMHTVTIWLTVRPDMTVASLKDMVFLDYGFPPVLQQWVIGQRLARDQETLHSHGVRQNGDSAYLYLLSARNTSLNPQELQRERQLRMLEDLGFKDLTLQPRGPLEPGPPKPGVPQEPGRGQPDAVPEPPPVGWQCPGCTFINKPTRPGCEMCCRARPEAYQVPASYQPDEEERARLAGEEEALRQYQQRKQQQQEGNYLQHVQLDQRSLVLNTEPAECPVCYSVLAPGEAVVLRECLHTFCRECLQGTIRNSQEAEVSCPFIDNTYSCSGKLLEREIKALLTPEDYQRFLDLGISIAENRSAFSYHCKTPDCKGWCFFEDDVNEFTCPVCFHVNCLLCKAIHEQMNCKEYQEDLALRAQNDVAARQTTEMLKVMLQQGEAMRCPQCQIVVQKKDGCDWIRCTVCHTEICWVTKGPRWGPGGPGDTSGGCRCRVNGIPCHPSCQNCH
UniProt Q9H5N1: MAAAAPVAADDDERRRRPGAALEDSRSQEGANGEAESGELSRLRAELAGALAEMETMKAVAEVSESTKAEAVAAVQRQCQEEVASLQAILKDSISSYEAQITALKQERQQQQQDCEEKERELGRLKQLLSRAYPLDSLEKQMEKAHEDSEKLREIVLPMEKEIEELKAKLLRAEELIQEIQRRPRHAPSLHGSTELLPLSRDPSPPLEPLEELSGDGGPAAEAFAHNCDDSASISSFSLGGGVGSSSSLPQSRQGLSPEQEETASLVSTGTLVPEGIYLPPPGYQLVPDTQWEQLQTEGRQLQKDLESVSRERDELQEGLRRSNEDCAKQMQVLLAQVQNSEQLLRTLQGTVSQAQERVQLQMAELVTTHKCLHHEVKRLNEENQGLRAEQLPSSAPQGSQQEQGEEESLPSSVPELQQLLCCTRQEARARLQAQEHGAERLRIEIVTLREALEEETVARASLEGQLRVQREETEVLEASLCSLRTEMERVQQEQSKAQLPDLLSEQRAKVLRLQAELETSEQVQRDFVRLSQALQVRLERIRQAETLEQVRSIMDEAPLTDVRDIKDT

Some of the results follow.

Compound in one test: C1=CC=C(C=C1)[C@H](COC2=CC3=C(C=C2)NC(=O)N3)NC(=O)C4=CC=CN(C4=O)CC5=CC(=C(C=C5)F)F
The test can be described thus: log2 fold change, soluble protein after heating vs DMSO (PISA); higher = thermal stabilisation; K562 cells, 10 uM, 30 min; active = over 0.2 and 3.5 SD of the protein, either way, in both replicates (recomputed). The method, boiled down:
(§1)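 Aliquots of K562 cells (2×10^6 cells/mL) treated with 10 μM compound for 30 min were heated for 3 min over 48°C-58°C. After pooling and extraction in PBS with 0.5% NP-40 at 4°C, soluble protein from a 21,000xg, 90 min spin was quantified by TMTpro 16plex LC-MS/MS with channel sums equalised. Thermal stability is expressed against control samples, from duplicates, as a log2 fold change.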
RBFOX2 isoform 8 (UniProt O43251): the log2 fold change is inactive: 0.111.

For the target RASSF3 (UniProt Q86WH2), the log2 fold change was inactive: -0.036.

In the case of RBM23 (UniProt Q86U06), the log2 fold change was inactive: -0.199.

Consider RALY (UniProt Q9UKM9), for which the log2 fold change was inactive: 0.102.

With RASA2 (UniProt Q15283), the log2 fold change is inactive: -0.238.

With RBBP5 isoform 2 (UniProt Q15291), the log2 fold change was inactive: 0.041.

RAB3C (UniProt Q96E17): the log2 fold change is inactive: 0.023.

For RBBP4 isoform 2 (UniProt Q09028), the log2 fold change was inactive: -0.011.

RAB3IL1 (UniProt E9PK89): the log2 fold change is inactive: 0.05.

Take RALGAPB (UniProt Q86X10): the log2 fold change is inactive: -0.068.

For RAB30 (UniProt Q15771), the log2 fold change was inactive: 0.086.

Take R3HDM1 isoform 2 (UniProt Q15032): the log2 fold change was inactive: 0.024.

RANBP3 isoform 2 (UniProt Q9H6Z4): the log2 fold change was inactive: -0.023.

For RABGAP1L isoform 5 (UniProt Q5R372), the log2 fold change is inactive: 0.027.

For RAD51B (UniProt O15315), the log2 fold change was inactive: -0.138.

For RBM28 (UniProt Q9NW13), the log2 fold change was inactive: -0.03.

For RAB40C (UniProt Q96S21), the log2 fold change is inactive: 0.077.

RAB33B (UniProt Q9H082): the log2 fold change is inactive: 0.003.

With R3HDM4 (UniProt Q96D70), the log2 fold change is inactive: -0.107.

With RABAC1 (UniProt Q9UI14), the log2 fold change was inactive: 0.077.

Compound in a further test: CC1=C(SC2=C1C(=N[C@H](C3=NN=C(N32)C)CC(=O)N)C4=CC=C(C=C4)Cl)C
Described as above. Put shortly: as §1
On to RBFOX2 isoform 8 (UniProt O43251), for which the log2 fold change was inactive: 0.114.

As to RASSF3 (UniProt Q86WH2), the log2 fold change was inactive: 0.171.

As to RBCK1 (UniProt Q9BYM8), the log2 fold change was inactive: 0.092.

Take RBM23 (UniProt Q86U06): the log2 fold change was inactive: 0.

Consider RALY (UniProt Q9UKM9), for which the log2 fold change is inactive: -0.379.

As for RASA1 (UniProt P20936), the log2 fold change was inactive: -0.074.

With RAB28 (UniProt P51157), the log2 fold change was inactive: -0.013.

RABEP2 (UniProt Q9H5N1): the log2 fold change is inactive: 0.06.

In the case of RASA2 (UniProt Q15283), the log2 fold change is inactive: -0.006.

On to RAB3C (UniProt Q96E17), for which the log2 fold change is inactive: 0.007.

On to RBBP4 isoform 2 (UniProt Q09028), for which the log2 fold change was inactive: 0.043.

In the case of RAB3IL1 (UniProt E9PK89), the log2 fold change was inactive: 0.259.

Turning to RALGAPB (UniProt Q86X10), the log2 fold change was inactive: -0.161.

In the case of RAB30 (UniProt Q15771), the log2 fold change was inactive: -0.061.

For the target RASA3 (UniProt Q14644), the log2 fold change is inactive: 0.071.

As to RAP1B (UniProt F5GWU8), the log2 fold change is inactive: 0.063.

Take RALBP1 (UniProt Q15311): the log2 fold change is inactive: 0.038.

Regarding RABGAP1L isoform 5 (UniProt Q5R372), the log2 fold change is inactive: 0.027.

Turning to RAD51B (UniProt O15315), the log2 fold change was inactive: 0.228.

Turning to RBM28 (UniProt Q9NW13), the log2 fold change is inactive: -0.33.

Consider RAB33B (UniProt Q9H082), for which the log2 fold change was inactive: -0.028.
